The values below come from the supplement of paper PMC12542422.

Structures are written as SMILES. Where a name gives a salt, the structure may show the parent alone. ± gives the standard deviation of the averaged measurements. The list shows a part of the results. These are raw signals, not scaled to a control.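 Ribosome-assembly readouts in HeLa cells were imaged via ENP1 staining, with or without export block, or inducible tagged ribosomal protein reporters. Machine learning classified per-cell signal location versus solvent (DMSO) controls. Hits surpassed the DMSO false-positive mean by five standard deviations and were visually confirmed; three biological replicates.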

In one test the test system is HeLa K (ENP1 immunofluorescence, no LMB). Description: fraction of cells with nucleolar or nucleolar/nucleoplasmic ENP1 signal (MainHitrate); higher = more cells with nucleolar/nuclear readout signal (for ENP1 -LMB: less RNAPI inhibition; for +LMB ENP1 and RP reporters: stronger nuclear/nucleolar retention, i.e. ribosome biogenesis defect). Particulars: concentration: 1 µM; treatment time: 6 h; ENP1 -LMB; leptomycin B: none.
Consider `Cc1cccc(Cc2c[nH]cn2)c1C` [Detomidine HCl], for which the fraction amounted to 0.9955 ± 0.0078.

The compound `CCC1=C[C@H]2CN3CCc4c([nH]c5ccccc45)[C@](C(=O)OC)(C2)[C@H]13` [Catharanthine] registered a fraction of 0.981 ± 0.033.

Compound `Cc1cccc(C)c1NC(=O)CN1CCCC1=O` [Nefiracetam (Translon)] returned a fraction of 0.987 ± 0.023.

Turning to `CCC(COC(=O)c1cc(OC)c(OC)c(OC)c1)(c1ccccc1)N(C)C` (centres undefined) [Trimebutine], the fraction amounted to 0.993 ± 0.012.

`CC(O)(CS(=O)(=O)c1ccc(F)cc1)C(=O)Nc1ccc(C#N)c(C(F)(F)F)c1` (centres undefined) [Bicalutamide (Casodex)] came in with a fraction of 0.9981 ± 0.0033.

As to `O=C(O[C@H]1C[C@H]2CC[C@@H](C1)[N+]21CCCC1)C(O)(c1ccccc1)c1ccccc1` [Trospium chloride (Sanctura)], the fraction turned out to be 0.993 ± 0.012.

Consider `CNC(=O)Oc1ccc2c(c1)[C@]1(C)CCN(C)[C@@H]1N2C` [Physostigmine Salicylate], for which the fraction was 0.9992 ± 0.0013.

The compound `O=P1(N(CCCl)CCCl)NCCCO1` (centres undefined) [Cyclophosphamide monohydrate] came in with a fraction of 0.9953 ± 0.0082.

`C=C1CC[C@@]2(O)[C@H]3Cc4ccc(O)c5c4[C@@]2(CCN3CC2CC2)[C@H]1O5` [Nalmefene HCl] returned a fraction of 0.9968 ± 0.0056.

Turning to `CCCCCCCCCCCCCCCC[n+]1ccccc1` [Cetylpyridinium Chloride], the fraction is 0.976 ± 0.041.

In turn, `CN1[C@@H]2CC(O)C[C@H]1[C@@H]1O[C@@H]12` (some centres undefined) [Scopine] showed a fraction of 0.9962 ± 0.0066.

In turn, `CC(C)=CC1C(C(=O)OCc2cccc(Oc3ccccc3)c2)C1(C)C` (centres undefined) [Phenothrin] showed a fraction of 0.996 ± 0.0069.

Turning to `O=S(=O)(F)Cc1ccccc1` [PMSF (Phenylmethylsulfonyl Fluoride)], the fraction turned out to be 0.974 ± 0.044.

Compound `C[C@@H]1O[C@@H](O[C@H]2C[C@@H](O)[C@]3(CO)[C@H]4[C@H](O)C[C@]5(C)[C@@H](C6=CC(=O)OC6)CC[C@]5(O)[C@@H]4CC[C@]3(O)C2)[C@H](O)[C@H](O)[C@H]1O` [Ouabain] displayed a fraction of 0.962 ± 0.065.

The compound `C[C@]12C/C(=C/O)C(=O)C[C@@H]1CC[C@@H]1[C@@H]2CC[C@@]2(C)[C@H]1CC[C@]2(C)O` [Oxymetholone] gave a fraction of 0.979 ± 0.037.

With `CC[N+]1(C)CCCC(OC(=O)C(O)(c2ccccc2)c2ccccc2)C1` (centres undefined) [Pipenzolate Bromide], the fraction worked out at 0.9964 ± 0.0063.

With `CN1C(=O)CCS(=O)(=O)C1c1ccc(Cl)cc1` (centres undefined) [Chlormezanone (Trancopal)], the fraction came to 0.989 ± 0.019.

In the case of `C[N+]1(C)[C@@H]2C[C@@H](OC(=O)[C@H](CO)c3ccccc3)C[C@H]1[C@@H]1O[C@@H]12` [Methscopolamine (Pamine)], the fraction was determined as 0.9947 ± 0.0092.

Regarding `Cc1cc(C(C#N)c2ccc(Cl)cc2)c(Cl)cc1NC(=O)c1cc(I)cc(I)c1O` (centres undefined) [Closantel], the fraction amounted to 0.982 ± 0.032.

Compound `CC[C@H]1CN2CCc3cc(OC)c(OC)cc3[C@@H]2C[C@@H]1C[C@H]1NCCc2cc(OC)c(OC)cc21` [Emetine] gave a fraction of 0.9968 ± 0.0055.

`CC(C)NCC(O)c1ccccc1Cl` (centres undefined) [Clorprenaline HCL]: the fraction is 0.991 ± 0.015.

`Cc1cc(O)ccc1Cl` [Chlorocresol] had a fraction of 0.985 ± 0.025.

Turning to `NCC1(CC(=O)O)CCCCC1` [Gabapentin Hydrochloride], the fraction stood at 0.9974 ± 0.0045.

In turn, `C[C@]12CC[C@H]3[C@@H](CC[C@@]45O[C@@H]4C(O)=C(C#N)C[C@]35C)[C@@H]1CC[C@@H]2O` [Trilostane] came in with a fraction of 0.9988 ± 0.002.

In turn, `CC(C)N(CCC(C(N)=O)(c1ccccc1)c1ccccn1)C(C)C` (centres undefined) [Disopyramide Phosphate] registered a fraction of 0.9965 ± 0.0061.

As to `CN(C)C(=O)Oc1cccc([N+](C)(C)C)c1` [Neostigmine bromide (Prostigmin)], the fraction is 0.993 ± 0.013.

Consider `C[N+]1(C)CCOC(O)(c2ccc(-c3ccc(C4(O)C[N+](C)(C)CCO4)cc3)cc2)C1` (centres undefined) [Hemicholinium Bromide], for which the fraction was found to be 0.9982 ± 0.0031.

The next test concerns HeLa RPS2-YFP reporter. Description: fraction of reporter-positive cells with nuclear (nucleolar or nucleolar/nucleoplasmic) RPS2-YFP (MainHitrate); higher = more cells with nucleolar/nuclear readout signal (for ENP1 -LMB: less RNAPI inhibition; for +LMB ENP1 and RP reporters: stronger nuclear/nucleolar retention, i.e. ribosome biogenesis defect). Conditions: concentration: 1 µM; treatment time: 6 h.
Turning to `Cc1cccc(Cc2c[nH]cn2)c1C` [Detomidine HCl], the “fraction of reporter-positive cells with nuclear” value (“fraction … with nuclear” for short) amounted to 0.107 ± 0.095.

Regarding `CCC1=C[C@H]2CN3CCc4c([nH]c5ccccc45)[C@](C(=O)OC)(C2)[C@H]13` [Catharanthine], the “fraction … with nuclear” value was 0.132 ± 0.095.

For `Cc1cccc(C)c1NC(=O)CN1CCCC1=O` [Nefiracetam (Translon)], the “fraction … with nuclear” value was found to be 0.074 ± 0.032.

Regarding `CCC(COC(=O)c1cc(OC)c(OC)c(OC)c1)(c1ccccc1)N(C)C` (centres undefined) [Trimebutine], the “fraction … with nuclear” value is 0.0875 ± 0.059.

Turning to `CC(O)(CS(=O)(=O)c1ccc(F)cc1)C(=O)Nc1ccc(C#N)c(C(F)(F)F)c1` (centres undefined) [Bicalutamide (Casodex)], the “fraction … with nuclear” value was 0.119 ± 0.067.

Turning to `O=C(O[C@H]1C[C@H]2CC[C@@H](C1)[N+]21CCCC1)C(O)(c1ccccc1)c1ccccc1` [Trospium chloride (Sanctura)], the “fraction … with nuclear” value amounted to 0.116 ± 0.08.

Turning to `CNC(=O)Oc1ccc2c(c1)[C@]1(C)CCN(C)[C@@H]1N2C` [Physostigmine Salicylate], the “fraction … with nuclear” value is 0.176 ± 0.18.

With `O=P1(N(CCCl)CCCl)NCCCO1` (centres undefined) [Cyclophosphamide monohydrate], the “fraction … with nuclear” value turned out to be 0.0834 ± 0.012.

Turning to `C=C1CC[C@@]2(O)[C@H]3Cc4ccc(O)c5c4[C@@]2(CCN3CC2CC2)[C@H]1O5` [Nalmefene HCl], the “fraction … with nuclear” value is 0.165 ± 0.14.

Consider `CCCCCCCCCCCCCCCC[n+]1ccccc1` [Cetylpyridinium Chloride], for which the “fraction … with nuclear” value stood at 0.212 ± 0.19.

For the compound `CN1[C@@H]2CC(O)C[C@H]1[C@@H]1O[C@@H]12` (some centres undefined) [Scopine], the “fraction … with nuclear” value is 0.107 ± 0.055.

Turning to `CC(C)=CC1C(C(=O)OCc2cccc(Oc3ccccc3)c2)C1(C)C` (centres undefined) [Phenothrin], the “fraction … with nuclear” value was 0.0707 ± 0.054.

As to `O=S(=O)(F)Cc1ccccc1` [PMSF (Phenylmethylsulfonyl Fluoride)], the “fraction … with nuclear” value worked out at 0.119 ± 0.1.

Turning to `C[C@@H]1O[C@@H](O[C@H]2C[C@@H](O)[C@]3(CO)[C@H]4[C@H](O)C[C@]5(C)[C@@H](C6=CC(=O)OC6)CC[C@]5(O)[C@@H]4CC[C@]3(O)C2)[C@H](O)[C@H](O)[C@H]1O` [Ouabain], the “fraction … with nuclear” value worked out at 0.102 ± 0.061.

Take `C[C@]12C/C(=C/O)C(=O)C[C@@H]1CC[C@@H]1[C@@H]2CC[C@@]2(C)[C@H]1CC[C@]2(C)O` [Oxymetholone]: the “fraction … with nuclear” value was 0.116 ± 0.088.

As to `CC[N+]1(C)CCCC(OC(=O)C(O)(c2ccccc2)c2ccccc2)C1` (centres undefined) [Pipenzolate Bromide], the “fraction … with nuclear” value stood at 0.19 ± 0.18.

With `CN1C(=O)CCS(=O)(=O)C1c1ccc(Cl)cc1` (centres undefined) [Chlormezanone (Trancopal)], the “fraction … with nuclear” value was 0.117 ± 0.043.

Take `C[N+]1(C)[C@@H]2C[C@@H](OC(=O)[C@H](CO)c3ccccc3)C[C@H]1[C@@H]1O[C@@H]12` [Methscopolamine (Pamine)]: the “fraction … with nuclear” value came to 0.0828 ± 0.062.

In the case of `Cc1cc(C(C#N)c2ccc(Cl)cc2)c(Cl)cc1NC(=O)c1cc(I)cc(I)c1O` (centres undefined) [Closantel], the “fraction … with nuclear” value turned out to be 0.136 ± 0.12.

In the case of `CC[C@H]1CN2CCc3cc(OC)c(OC)cc3[C@@H]2C[C@@H]1C[C@H]1NCCc2cc(OC)c(OC)cc21` [Emetine], the “fraction … with nuclear” value is 0.0212 ± 0.0078.

Turning to `CC(C)NCC(O)c1ccccc1Cl` (centres undefined) [Clorprenaline HCL], the “fraction … with nuclear” value came to 0.131 ± 0.096.

Consider `Cc1cc(O)ccc1Cl` [Chlorocresol], for which the “fraction … with nuclear” value turned out to be 0.133 ± 0.092.

Consider `NCC1(CC(=O)O)CCCCC1` [Gabapentin Hydrochloride], for which the “fraction … with nuclear” value was found to be 0.121 ± 0.074.

With `C[C@]12CC[C@H]3[C@@H](CC[C@@]45O[C@@H]4C(O)=C(C#N)C[C@]35C)[C@@H]1CC[C@@H]2O` [Trilostane], the “fraction … with nuclear” value was determined as 0.134 ± 0.082.

For the compound `CC(C)N(CCC(C(N)=O)(c1ccccc1)c1ccccn1)C(C)C` (centres undefined) [Disopyramide Phosphate], the “fraction … with nuclear” value was found to be 0.138 ± 0.16.

As to `CN(C)C(=O)Oc1cccc([N+](C)(C)C)c1` [Neostigmine bromide (Prostigmin)], the “fraction … with nuclear” value is 0.101 ± 0.058.

Regarding `C[N+]1(C)CCOC(O)(c2ccc(-c3ccc(C4(O)C[N+](C)(C)CCO4)cc3)cc2)C1` (centres undefined) [Hemicholinium Bromide], the “fraction … with nuclear” value was determined as 0.159 ± 0.17.
